# Test results: the supplement of paper PMC3334620
# Whole data set: some 33,000 sequences, median “E-score (-0.5 to 0.5)” near -0.0059, cut for the highest 2% near 0.26. Some of the results follow.
# Target: T1, Cin5 (UniProt P40917)
# T1 sequence: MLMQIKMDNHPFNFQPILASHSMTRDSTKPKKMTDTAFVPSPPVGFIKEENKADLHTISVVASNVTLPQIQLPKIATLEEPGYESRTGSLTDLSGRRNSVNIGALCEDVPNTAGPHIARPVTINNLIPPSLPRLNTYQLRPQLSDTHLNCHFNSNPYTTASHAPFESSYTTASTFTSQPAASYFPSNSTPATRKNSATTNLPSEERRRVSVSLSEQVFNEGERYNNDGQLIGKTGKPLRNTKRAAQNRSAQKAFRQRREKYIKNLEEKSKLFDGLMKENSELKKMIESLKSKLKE
# Experiment: PBM E-score (8-mer binding enrichment) (E-score (-0.5 to 0.5)); higher = stronger / more preferred TF binding
# Settings: protein concentration: 100 nM; construct: GST-full length
# Summary of the method: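 For each ungapped eight-base word taken together with its reverse complement, the Universal PBM Analysis Suite assigned an E-score. Binding data came from GST-tagged yeast transcription factors, applied at about 100-200 nM, on universal all-10-mer Agilent arrays made double-stranded by primer extension. Fluorescent anti-GST marked bound protein, and scans were normalised with masliner.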
row,Sequence,PBM E-score
1,CGGCGGAG,-0.0743
2,GCAATTTA,0.137
3,AGAGTGCC,-0.0683
4,CTAAGGGC,-0.112
5,AAACGCAT,-0.113
6,TATGATAA,0.252
7,TCGGGAAA,0.141
8,GTCTAATA,0.0261
9,ATAATCAA,0.227
10,ATTTGACA,0.0242
11,CCATCCGA,0.0754
12,CGGATAAA,0.246
13,CCCGACTA,-0.121
14,AGGCTCGG,-0.215
15,CAGCGCAC,-0.179
16,ATTGCCGG,-0.065
17,TATTGGAA,-0.0281
18,ACTTTACA,0.0908
19,CGCTCTAC,-0.0468
20,AGAAACCG,-0.00823
21,GTCTGATA,-0.0398
22,GCAGGGGC,-0.128

# For reference, part of the list above.
row,Sequence,PBM E-score
10,ATTTGACA,0.0242
11,CCATCCGA,0.0754
12,CGGATAAA,0.246

# Further results

row,Sequence,PBM E-score
1,CACGGAGA,-0.00118
2,AACATGTT,-0.00177
3,GCCGATAA,-0.12
4,CTCCAGGA,-0.221
5,CGGGCACA,-0.123
6,CGACCGCC,-0.117
7,TAAAATCA,0.101
8,ACCTCAAT,-0.00034
9,AAGTTTCG,-0.00445
10,AAGTGATA,-0.0276
11,TAATTGGA,0.0455
12,AGTACTTG,0.0512
13,CGATCAGA,-0.114
14,CGAATATA,0.122
15,CAAGCCTC,-0.179
16,TTCAGAAA,-0.211
17,ATGTAATG,0.193
18,AACAGGCC,-0.226
19,CCAAACCC,0.0807
20,CGGGGCGC,-0.211
21,ACGGCGGG,-0.00798
22,GGAGCAAA,0.0065

row,Sequence,PBM E-score
1,GGGTCAAA,0.0244
2,AGTCCCTA,-0.176
3,ATAGGATA,0.0444
4,ATGCGCAG,-0.13
5,GTTTCCAA,-0.0235
6,CTAACAAC,0.0568
7,ACGTATAG,-0.0505
8,AACTTACC,0.00363
9,GACTAAAA,-0.013
10,GCTTCCAA,-0.0421
11,CCGGTATA,0.0476
12,ACGGATCA,0.121
13,AAATTCTA,-0.0974
14,AGTCAATA,0.117
15,GCTTTGCC,-0.186
16,AGCGGCGA,0.193
17,TTAACTAA,0.343
18,AACCTGGG,-0.124
19,GCAAAGTA,0.175
20,TCCCCACA,-0.143
21,CCCGCACA,-0.0333
22,AAGGTTGT,0.0748

row,Sequence,PBM E-score
1,AAAGCTTG,0.0216
2,GGGTTCTA,-0.0388
3,AAAAGCCC,-0.0247
4,AGTGAGGA,-0.079
5,CTTCTATA,-0.0912
6,CATACGAG,-0.0517
7,AATACCCT,0.045
8,GCGCAGGA,-0.201
9,CCTTACCC,-0.154
10,CACTGACA,0.0409
11,CATCAATG,0.0915
12,CTGTTCAC,8e-05
13,CTCCGGTA,-0.0531
14,AAAGTCTG,-0.015
15,TCAGCTCA,0.2
16,ATTACCCG,0.0913
17,ATGCTTCC,-0.0337
18,ACACGGCA,-0.128
19,CTCCGCTC,-0.0442
20,ACAGGCAG,0.0102
